In PubChem BioAssay AID493014 (National Center for Advancing Translational Sciences (NCATS), 2011):
This is one part of the list. Further columns of the screen follow, without active or inactive calls. Compounds called inactive in the main read-out are mostly missing here. Potencies come from curve fits of mixed quality, noted in brackets.

Assay: qHTS Assay to Find Inhibitors of Chronic Active B-Cell Receptor Signaling
Settings: ABC-DLBCL IkBa-CBG/CBR reporter, luminescence ratio (green luciferase fused to IkBa over red control in TMD8 lymphoma cells), 4 h
Method in brief: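 Concentration-response series (up to 46 uM) were applied to TMD8 dual-reporter cells for 4 h at 37C with doxycycline. Green/red ratio, after filter-overlap correction, defined %Activity; red signal alone was normalised to basal cells and zero luminescence.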

[1] = measured here: IkBa-CBG green luminescence
[2] = measured here: CBR red luminescence, cell number

Structure (SMILES) | AC50 [1] | AC50 [2]
COC(=O)c1[nH]c2ccc(F)cc2c1NS(=O)(=O)c1ccc(OC)cc1 | 18.4 µM [falling, partial curve, poor fit] | –
CCN(CC)c1ccc(-n2cc3c(=O)n(C)c(=O)n(C)c3c2)cc1 | – | 11.2 µM [falling, single point]
O=C(NNC(=O)c1cc(Cl)ccc1[N+](=O)[O-])c1csc(N2CCOCC2)n1 | – | 8.2 µM [falling, partial curve]
O=C(NNC(=O)c1ccc(Br)s1)c1cccc(Cl)c1 | – | 14.6 µM [falling, partial curve]
CCCCN(CCCC)CCCNC(=O)CC1Oc2ccc(C)cc2NC1=O (stereo not drawn) | – | 0.82 µM [rising, full curve, poor fit]
CCC(C)NC(=O)CSc1nc2cc3c(cc2c(=O)n1Cc1ccc(C(=O)NCCc2ccc(OC)c(OC)c2)cc1)OCO3 (stereo not drawn) | – | 35.5 µM [rising, single point]
COc1cc(/C=N/NC(=O)CCn2cnc(-c3ccccc3)c2-c2ccccc2)ccc1O | – | 18.4 µM [falling, single point]
CCc1ccc(C(=O)Cc2cc3cccc(OC)c3oc2=O)cc1 | – | 0.794 µM [falling, full curve]
COc1ccc(CNn2c(-c3cccc(C)c3)nc3ccccc3c2=O)cc1OC | – | 29.1 µM [rising, single point]
COc1cc(OC)cc(-c2cc3cc(F)ccc3cn2)c1 | – | 6.51 µM [falling, single point]
CCCN(CCC)C(=O)CSc1nc2n[nH]c(C)c2c(=N)n1-c1ccc(OC)cc1 | – | 28.2 µM [falling, single point]
COc1ccc(NC(=O)Cn2ncc(Cl)c(Cl)c2=O)cc1S(=O)(=O)N1CCOCC1 | 23.1 µM [rising, partial curve, poor fit] | 29.1 µM [falling, single point]
CCOC(=O)CNC(=O)C1(c2ccccc2)CCCC1 | – | 0.164 µM [falling, full curve, poor fit]
Cc1ccc2nc(-c3ccc(Br)o3)oc(=O)c2c1 | – | 2.31 µM [falling, full curve]
N/C(Cc1ccc(Cl)cc1Cl)=N\OC(=O)c1ccc(Br)o1 | – | 10 µM [rising, single point]
CS(=O)(=O)n1nc(-c2ccc(Cl)cc2)nc1SCc1ccccc1 | – | 2.91 µM [rising, partial curve]
CN(Cc1c(C(=O)N(C)Cc2ccccc2)nc2ccccn12)CC1Cc2ccccc2O1 (stereo not drawn) | – | 2.24 µM [falling, single point]
CCN(C(=O)COC(=O)c1cc(OC)ccc1Br)C1CCS(=O)(=O)C1 (stereo not drawn) | – | 2.59 µM [falling, partial curve]
Cc1ccc(/C([O-])=C(/C(=S)Nc2ccc(SC(F)F)cc2)[n+]2ccccc2)cc1[N+](=O)[O-] | – | 7.94 µM [rising, partial curve]
CSCc1ccc(C(=O)Nc2cc(C)cc(C)c2)cc1 | – | 20.6 µM [falling, partial curve, poor fit]
COc1ccccc1/C=C/C=N/NC(=O)CC1C(=O)NN=C1C (stereo not drawn) | – | 8.91 µM [falling, partial curve]

Structure (SMILES) | AC50 [1] | AC50 [2]
CC(C)c1onc(C(=O)N2C(C)CCCC2C)c1[N+](=O)[O-] (stereo not drawn) | – | 3.26 µM [rising, partial curve, poor fit]
O=C(Nc1c(F)cc(F)cc1Br)C1CCCO1 (stereo not drawn) | – | 18.4 µM [rising, single point]
CCN1C(=O)C(CC(=O)Nc2ccc(OC)cc2)N(CCc2ccccc2F)C1=S (stereo not drawn) | – | 28.2 µM [falling, single point]
O=[N+]([O-])c1ccc(S(=O)(=O)N2CCN(c3ccc(N4CCOCC4)nn3)CC2)cc1 | – | 2.91 µM [rising, partial curve, poor fit]
COc1cccc(-c2nn(C)c3sc(C(=O)NCc4ccco4)cc23)c1 | – | 0.517 µM [falling, full curve, poor fit]
Cc1cccc(CSCc2ccc(C(=O)NCCc3ccccc3)o2)c1 | – | 10 µM [rising, partial curve, poor fit]
CC(C)c1ccc2oc3nc(N)c(C(=O)O)cc3c(=O)c2c1 | – | 35.5 µM [falling, single point]
C/C(Cc1ccccc1)=N\NC(=O)CNC(=O)c1ccccc1O | – | 35.5 µM [falling, single point]
Cc1ccccc1NC(=O)CNc1ccccc1C(=O)NCc1ccco1 | – | 2.59 µM [falling, full curve, poor fit]
O=C1N=C(N2CCN(c3ccccc3)CC2)S/C1=C/c1cccs1 | – | 0.651 µM [rising, full curve]
Cc1csc(SCC(=O)N2CCCC2)n1 | – | 14.1 µM [rising, partial curve, poor fit]
Cc1cccc(NC(=O)CSc2nncn2-c2ccccn2)c1 | – | 35.5 µM [falling, single point]
CC(=O)N(Cc1ccccc1)c1ncc2c(n1)c(=O)c(C#N)c1ccccn12 | – | 29.1 µM [falling, single point]
Cc1ccccc1OC1C(=O)N(CC2CCCO2)C1c1ccc2c(c1)OCO2 (stereo not drawn) | – | 35.5 µM [falling, single point]
CSc1nsc(SCC(=O)Nc2ccc(C(=O)O)cc2)n1 | – | 8.91 µM [falling, single point]
O=C(/C=C/c1ccccc1)Nc1cccnc1 | – | 12.6 µM [falling, partial curve]
COC(=O)Nc1ccccc1C(=O)N1CCCCC1 | – | 29.1 µM [rising, single point]
CCOC(=O)c1c(NC(=O)COC(=O)/C=C/c2ccccc2)sc(C(=O)NC)c1C | – | 18.4 µM [rising, partial curve, poor fit]
COC(=O)c1cn(C(=O)c2ccc(Cl)cc2)c2ccccc12 | – | 2.24 µM [rising, full curve]
Cc1[nH]c2ccccc2c1SCCNC(=O)c1ccc(Br)o1 | – | 16.4 µM [falling, partial curve]
O=C1OC(/C=C/c2ccccc2)=NC/1=C/c1ccco1 | – | 29.1 µM [falling, single point]

Ordered by number of heavy atoms (smallest number first): some entries from above.
Structure (SMILES) | AC50 [1] | AC50 [2]
O=C(Nc1c(F)cc(F)cc1Br)C1CCCO1 (stereo not drawn) | – | 18.4 µM [rising, single point]
COC(=O)Nc1ccccc1C(=O)N1CCCCC1 | – | 29.1 µM [rising, single point]
CC(C)c1onc(C(=O)N2C(C)CCCC2C)c1[N+](=O)[O-] (stereo not drawn) | – | 3.26 µM [rising, partial curve, poor fit]
Cc1[nH]c2ccccc2c1SCCNC(=O)c1ccc(Br)o1 | – | 16.4 µM [falling, partial curve]
Cc1cccc(NC(=O)CSc2nncn2-c2ccccn2)c1 | – | 35.5 µM [falling, single point]
C/C(Cc1ccccc1)=N\NC(=O)CNC(=O)c1ccccc1O | – | 35.5 µM [falling, single point]
COc1cccc(-c2nn(C)c3sc(C(=O)NCc4ccco4)cc23)c1 | – | 0.517 µM [falling, full curve, poor fit]
Cc1ccccc1NC(=O)CNc1ccccc1C(=O)NCc1ccco1 | – | 2.59 µM [falling, full curve, poor fit]
Cc1ccccc1OC1C(=O)N(CC2CCCO2)C1c1ccc2c(c1)OCO2 (stereo not drawn) | – | 35.5 µM [falling, single point]
O=[N+]([O-])c1ccc(S(=O)(=O)N2CCN(c3ccc(N4CCOCC4)nn3)CC2)cc1 | – | 2.91 µM [rising, partial curve, poor fit]
